# Laboratory results from the supplement of paper PMC4635364.
# Where a name gives a salt, the structure may show the parent alone. The list shows a part of the results. Repeats in this data set agree poorly, so a single value says little.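 Human fetal ventral-midbrain neural progenitor line ReNCell VM, differentiated without mitogens. Images stained for doublecortin (early neurons) or tyrosine hydroxylase (dopaminergic neurons) were scored by blinded raters against untreated wells (0 = no change). Repeats and both raters were averaged, and compounds averaging 2 or higher were picked as hits for retesting.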
# Tests used:
# ReNCell VM [1] = assay: neuronal differentiation score (DCX+ cell fraction vs untreated, manual image score) (score (-3 to 3)); higher = more neuronal differentiation; conditions: 2 uM, 2 weeks
# ReNCell VM [2] = assay: dopaminergic neuron differentiation score (TH+ cell fraction vs untreated, manual image score) (score (0 to 3)); higher = more TH+ dopaminergic neuron differentiation; conditions: 2 uM, 4 weeks, BDNF 10 ng/ml + GDNF 10 ng/ml
SMILES,neuronal differentiation score (ReNCell VM [1]; library: LOPAC),neuronal differentiation score (ReNCell VM [1]; library: Prestwick),neuronal differentiation score (ReNCell VM [1]; library: Tocriscreen),dopaminergic neuron differentiation score (ReNCell VM [2]; library: LOPAC),dopaminergic neuron differentiation score (ReNCell VM [2]; library: Prestwick),dopaminergic neuron differentiation score (ReNCell VM [2]; library: Tocriscreen),neuronal differentiation score (ReNCell VM [1]; library: Phytochemical),dopaminergic neuron differentiation score (ReNCell VM [2]; library: Phytochemical),neuronal differentiation score (ReNCell VM [1]; library: Spectrum),dopaminergic neuron differentiation score (ReNCell VM [2]; library: Spectrum)
CS(=O)(=O)Nc1ccc([N+](=O)[O-])cc1Oc1ccccc1 [Nimesulide],inactive: 0,inactive: 0,inactive: 0,inactive: 0,inactive: 0,inactive: 0,,,,
CC1(C)NC(=O)N(c2ccc([N+](=O)[O-])c(C(F)(F)F)c2)C1=O [Nilutamide],inactive: 0,inactive: 0,inactive: 0,inactive: 0,inactive: 0,inactive: 0,,,,
CN1CCC(=C2c3ccccc3CC(=O)c3sccc32)CC1 [Ketotifen fumarate],inactive: 0,inactive: 0,inactive: 0,inactive: 0,inactive: 0,inactive: 0,,,,
CN(C)CCCN1c2ccccc2CCc2ccc(Cl)cc21 [Clomipramine hydrochloride],inactive: 0,inactive: 0,inactive: 0,inactive: 0,inactive: 0,inactive: 0,,,,
COC(=O)[C@H]1[C@H]2C[C@H]3c4[nH]c5ccccc5c4CCN3C[C@H]2CC[C@@H]1O [Rauwolscine hydrochloride],inactive: 0,,inactive: 0,inactive: 0,,inactive: 0,inactive: 0,inactive: 0,,
CC[C@@H]1C(=O)OC[C@@H]1Cc1cncn1C [Pilocarpine nitrate],inactive: 1,inactive: 0,,inactive: 0,inactive: 0,,inactive: 0,inactive: 0,,
N=C(N)NC(=O)Cc1c(Cl)cccc1Cl [Guanfacine hydrochloride],inactive: 0,inactive: 0,inactive: 1,inactive: 0,inactive: 0,inactive: 0,,,,
CC1=C(CC(=O)O)c2cc(F)ccc2/C1=C\c1ccc([S+](C)[O-])cc1 (stereo not drawn) [Sulindac],inactive: 1,inactive: 0,inactive: 0,inactive: 0,inactive: 0,active: 3,,,,
OC[C@H]1O[C@@H](Oc2ccc(O)cc2)[C@H](O)[C@@H](O)[C@@H]1O [Arbutin],,inactive: 0,,,inactive: 0,,inactive: 0,inactive: 0,,
COCCOC(=O)C1=C(C)NC(C)=C(C(=O)OC(C)C)C1c1cccc([N+](=O)[O-])c1 (stereo not drawn) [Nimodipine],inactive: 0,inactive: 0,inactive: 0,inactive: 0,inactive: 0,inactive: 0,,,,
CCN(Cc1ccncc1)C(=O)C(CO)c1ccccc1 (stereo not drawn) [Tropicamide],inactive: 0,inactive: 0,inactive: 0,inactive: 0,inactive: 0,inactive: 0,,,,
CCN(CC)CCOCCOC(=O)C1(c2ccccc2)CCCC1 [Carbetapentane citrate],inactive: 0,inactive: 0,inactive: 0,inactive: 0,inactive: 0,inactive: 0,,,,
Cc1cc(C(C)(C)C)c(O)c(C)c1CC1=NCCN1 [Oxymetazoline hydrochloride],inactive: 0,inactive: 0,inactive: 0,inactive: 0,inactive: 0,inactive: 0,,,,
COCCOC(=O)C1=C(C)NC(C)=C(C(=O)OC/C=C/c2ccccc2)C1c1cccc([N+](=O)[O-])c1 (stereo not drawn) [Cilnidipine],inactive: 0,inactive: 0,inactive: 0,inactive: 0,inactive: 0,inactive: 0,,,,
CC(=O)N1CCN(c2ccc(OCC3COC(Cn4ccnc4)(c4ccc(Cl)cc4Cl)O3)cc2)CC1 (stereo not drawn) [Ketoconazole],inactive: 0,inactive: 0,inactive: 0,inactive: 0,inactive: 0,inactive: 0,,,,
COc1ccc2c(c1)c(CC(=O)O)c(C)n2C(=O)c1ccc(Cl)cc1 [Indomethacin],inactive: 0,inactive: 0,inactive: 0,inactive: 0,inactive: 0,inactive: 0,,,,
COCCCC/C(=N\OCCN)c1ccc(C(F)(F)F)cc1 [Fluvoxamine maleate],inactive: 0,inactive: 0,inactive: 0,inactive: 0,inactive: 0,inactive: 0,,,,
CCCCOc1cc(CC2CNC(=O)N2)ccc1OC (stereo not drawn),inactive: 0,,inactive: 0,inactive: 0,,inactive: 0,,,inactive: 0,inactive: 0
COc1ccc2[nH]cc(CCNC(C)=O)c2c1 [Melatonin],inactive: 0,inactive: 0,inactive: 0,inactive: 0,inactive: 0,inactive: 0,,,,
O=c1cc(-c2ccc(O)cc2)oc2cc(O)cc(O)c12 [Apigenin],inactive: 0,,inactive: 0,inactive: 0,,inactive: 0,inactive: 0,inactive: 0,,

# As a working copy, some entries already given:
SMILES,neuronal differentiation score (ReNCell VM [1]; library: LOPAC),neuronal differentiation score (ReNCell VM [1]; library: Prestwick),neuronal differentiation score (ReNCell VM [1]; library: Tocriscreen),dopaminergic neuron differentiation score (ReNCell VM [2]; library: LOPAC),dopaminergic neuron differentiation score (ReNCell VM [2]; library: Prestwick),dopaminergic neuron differentiation score (ReNCell VM [2]; library: Tocriscreen),neuronal differentiation score (ReNCell VM [1]; library: Phytochemical),dopaminergic neuron differentiation score (ReNCell VM [2]; library: Phytochemical),neuronal differentiation score (ReNCell VM [1]; library: Spectrum),dopaminergic neuron differentiation score (ReNCell VM [2]; library: Spectrum)
Cc1cc(C(C)(C)C)c(O)c(C)c1CC1=NCCN1 [Oxymetazoline hydrochloride],inactive: 0,inactive: 0,inactive: 0,inactive: 0,inactive: 0,inactive: 0,,,,
COCCOC(=O)C1=C(C)NC(C)=C(C(=O)OC/C=C/c2ccccc2)C1c1cccc([N+](=O)[O-])c1 (stereo not drawn) [Cilnidipine],inactive: 0,inactive: 0,inactive: 0,inactive: 0,inactive: 0,inactive: 0,,,,
